{"source": "patent US20090004683A1", "about": "“Indicator Agent for Noninflammatory Stress Response and Use Thereof” (priority 2004, published 2009)", "key": {"IL-18": {"tested_on": "IL-18", "experiment": "Plasma IL-18 level in restraint stress mice (ELISA)", "format": "in vivo, mouse", "details": "intraperitoneal 10 minutes before 6 hours restraint; FIG. 1B", "description": "(§1) For restraint stress, each mouse was kept in a restrainer (a round plastic tube 27 mm in diameter) for 1, 3 or 6 hours, and IL-18 levels were measured. Regarding the analysis of IL-6, each mouse was restrained as described above, and then housed in the starting cage for 6 hours, after which a measurement was performed.\nAfter restraint, each mouse was anesthetized with diethyl ether, and blood was drawn into an EDTA-containing tube. Plasma was separated by centrifugation at 4° C. and 10000×g for 10 minutes, and stored at −80° C. IL-18 and IL-6 were analyzed by ELISA using Quantikine™ immunoassay kit (R&D Systems) and OptEIA™ (BD-Pharmingen), respectively.\n(§2) The anti-ACTH antiserum (50 μl, 1:1), dexamethasone (1 ng/50 μl PBS(−)) or the anti-IL-18 antibody (50 μl, 1:1) was administered intraperitoneally to each mouse; after 10 minutes elapsed, the animal was kept in a restraint tube for 6 hours. Synthetic ACTH (250 μg/50 μl PBS(−)) was injected to the left leg; after 6 hours elapsed, the mice were subjected to the experiment.\n(§3) Each mouse was kept in a restrainer for 1 hour, and Ac-YVAD-CHO (200 μM/50 μl PBS(−)), Z-FA-fmk (100 μM/50 μl PBS(−)) and SB-203580 (100 μg/50 μl PBS(−) per mouse) were administered intraperitoneally. 1 and 3 hours after the start of restraint, SOD-1 (20 U) and DPI (30 μg) were administered intraperitoneally to the mouse, and samples were analyzed by Western blotting."}, "IL-18 precursor": {"tested_on": "IL-18 precursor", "experiment": "IL-18 (precursor) level in the adrenal of restraint stress mice", "format": "in vivo, mouse", "details": "intraperitoneal 10 minutes before 6 hours restraint; FIG. 1C", "description": "as §1, §2, §3\nWestern blot analysis of IL-18 and phosphorylated P38MAP kinase in adrenal tissue was performed as described below. […] Procaspase-11 and activated P38 MAP kinase were quantified using a Science Lab 99 image analysis system (manufactured by Fujifilm)."}}, "note": "For at least one compound, name, drawing or mass did not settle the structure."}
{"smiles": "C[C@@H]1C[C@H]2[C@@H]3CCC4=CC(=O)C=C[C@]4(C)[C@@]3(F)[C@@H](O)C[C@]2(C)[C@@]1(O)C(=O)CO", "note": "[dexamethasone]", "values": [{"measurement": "stress-induced increase in IL-18 level in plasma", "setting": "IL-18", "value": "inhibited"}, {"measurement": "stress-induced increase in IL-18 level in the adrenal", "setting": "IL-18 precursor", "value": "inhibited"}]}
